From patent US11390543B2, “Sterilization method” (NEWSOUTH INNOVATIONS PTY LIMITED, priority 2017, dated 2022)

test system: MS2 bacteriophage (ATCC 15597-B1); assay: Zeta potential of MS2 viruses in 0.17 M NaCl solution with different gas bubbles; assay type: physicochemical; settings: virus 10^8 per ml, gases at 200° C. (combustion gas 60° C.)

Row | Structure (SMILES) | Zeta potential values
1 | N#N [Nitrogen] | −10.8
2 | O=C=O [Carbon dioxide] | −6.2
3 | [Ar] [Argon] | −12.2
4 | O=O [Oxygen] | −12.6
